# Source: PubChem BioAssay AID2685 (National Center for Advancing Translational Sciences (NCATS), 2010)
# Screen size: about 320,000 compounds; about 2,100 (0.66%) were called active. Inconclusive results, whose numbers are uncertain, are shown with a selection of clear calls. The call rests on the fitted dose curve; in most records, active means well fitted inhibition curve with a large enough effect in the signal ratio, with a control signal flat (not every such curve was filed as active); inconclusive means small, poorly fitted or top-dose-only effect, or effect the other way, or a change in a side signal; inactive means flat fitted curve, though single readings scatter; the % refers to the signal ratio. A potency beside an inconclusive call is a rough fit, not a confirmed value.
# Test: qHTS Assay for Lipid Storage Modulators in Drosophila S3 Cells
# Conditions: BODIPY lipid droplet fluorescence, 18-24 h, cells fed with added oleic acid; lipid storage change, negative = inhibition: at 46.1 µM (top of the series) unless noted
# Excerpt: NIH Molecular Libraries Probe Production Centers Network [MLPCN] NIH Chemical Genomics Center [NCGC] MLPCN Grant: 1 R03 MH085686-01 Assay Submitter (PI): Beller, Mathias; Max-Planck-Institut fur Biophysikalische Chemie NCGC Assay Overview: Storing lipids as a reservoir for energy or the anabolism of elementary metabolites is a common feature of probably all cells and is conserved from bacteria to humans. The universal cellular lipid storage organelle is the so-called lipid storage droplet (LD). Although ubiquitous, LDs share a simple structure composed of a hydrophobic core that harbors the storage lipids, which is shielded by a droplet-specific phospholipid monolayer to which proteins are attached. The current model of LD biogenesis involves an incorporation of the lipid core into the membrane leaflets of the endoplasmic reticulum (ER) followed by a subsequent budding-like maturation of a LD, which ultimately pinches off. Once released, LD volume can increase by localized lipogenesis or fusion of existing droplet. Storage lipids are re-mobilized enzymatically by lipase activity. Lipase regulation in the adipocyte is heavily studied and involves multiple components including catecholamine signaling, the LD-associated proteins Perilipin and comparative gene identification (CGI-58) and at least two lipases named hormone sensitive lipase (HSL) and adipocyte triglyceride lipase (ATGL). LD regulation outside of the adipocyte is poorly understood and only few components are known. However, there is an urgent need to learn more about ectopic fat depots as mislocalized storage of lipids, for example in the liver or muscle, is an eminent health problem associated with insulin resistance or the metabolic syndrome. We developed a laser-scanning cytometer assay to enable 1,536-well screening and combined the results of the small molecules screen with an RNAi database based on lipid storage.
# Triacsin C (Sigma-Aldrich T-4540), an inhibitor of long-chain fatty acyl CoA synthetase that blocks synthesis of triglycerides, was used as a positive control for lipid under-storage. A total of 23 nL of compound solution of different concentrations were transferred to the assay plates using a Kalypsys pin tool equipped with a 1,536-pin array containing 10-nL slotted pins (FP1S10, 0.457-mm diameter, 50.8 mm long; V&P Scientific). One microliter of oleic acid (400 uM) was added, and the plate was lidded with stainless steel rubber gasket lined lids containing pinholes. […] Fluorescence was detected by excitation of the fluorophores with a 488-nm laser on an Acumen Explorer (TTP Lab Tech). The total intensity in channel 2 (500-530 nm) reflected lipid droplet accumulation. Cells were detected using channel 3 (575-640 nm) with 5-um width and 100-um depth filters. The ratio of the number of objects in PMT channel 2 over the number of objects in PMT channel 3 was also calculated. Percent activity was computed relative to an internal control (100% inhibited lipid droplet deposition due to the presence of 20 uM Triacsin C), which was added to 32 wells/plate.
# On the % scale 0 is the no-effect control and ±100 the full control effect; potency means the concentration at half of the fitted maximal effect.
SMILES,Potency,"lipid storage change, negative = inhibition"
COc1ccc(OCCN2C(=O)NC(C)(c3ccc(C)cc3)C2=O)cc1 (stereo unspecified),"inconclusive: 23.1 µM [falling, partial curve]",–
CCCCN(CC)CCCNC(=O)c1cn(C)c(=O)c2c1c1ccccc1n2C,–,inconclusive: 7.51%
Cc1ccc(C(=O)NCc2ccncc2)cc1S(=O)(=O)N1CCOCC1,"inconclusive: 29.1 µM [activator, single point]",–
COC(=O)c1cc(Nc2cc(C)c3c(O)cccc3n2)cc(C(=O)OC)c1,–,inconclusive: 16%
Cc1cc(Nc2cccc(Cl)c2)nc(N2CCOCC2)n1,"inconclusive: 7.31 µM [activator, partial curve]",–
Cc1noc(C)c1C(=O)Nc1nc(C23CC4CC(CC(C4)C2)C3)cs1,"inconclusive: 29.1 µM [activator, single point]",–
Cc1noc(C)c1S(=O)(=O)N1CCCC(C(=O)NCc2ccccc2Cl)C1 (stereo unspecified),–,inconclusive: -16.9%
Cc1ccnc(SCC(=O)O)n1,–,inconclusive: -6.59%
CSc1nc(N(C)C)c2ccccc2n1,–,inconclusive: 141%
CCn1c(=O)c(=O)[nH]c2cc(C(=O)N3CCN(c4ccccc4F)CC3)ccc21,"inconclusive: 0.731 µM [falling, full curve, poor fit]",–
CC(C)(C)n1nnnc1C(c1cccc(C#N)c1)N1CCCc2ccccc21 (stereo unspecified),–,inconclusive: 25.5%
CC1(C)CC(=O)c2sc(NC(=O)c3ccco3)nc2C1,"inconclusive: 0.651 µM [falling, single point]",–
CCc1ccc(OCCNC(=O)c2ccccc2SCc2ccccc2)cc1,"inconclusive: 7.31 µM [falling, single point]",–
O=C(NCCN1CCOCC1)c1ccc2c(c1)N(Cc1ccccc1)CCS2,–,inconclusive: 0.161% [at 9.22 µM]
COc1ccc(OC)c(NC(=S)NCc2ccccc2OC)c1,"inconclusive: 7.31 µM [falling, single point]",–
C#CCn1cc(Cl)cc(C(=O)Nc2ccccc2)c1=O,–,inconclusive: 16.8%
Cc1ccc(NC(=O)COc2ncnc3cc([N+](=O)[O-])ccc23)cc1S(=O)(=O)N1CCOCC1,–,inconclusive: 0.0946%
CC(=O)NCCC(=O)Nc1cc(S(=O)(=O)N2CCCCC2)ccc1N1CCN(C)CC1,–,inconclusive
NNS(=O)(=O)c1ccc(Sc2ccccn2)c([N+](=O)[O-])c1,–,inconclusive: 7.7%
CC(NC(=O)CCc1nnc(C2(c3ccc(Cl)cc3)CCC2)o1)C1CC1 (stereo unspecified),"inconclusive: 0.0052 µM [falling, full curve, poor fit]",–
O=C(COC(=O)c1ccccc1F)Nc1cccnc1Cl,–,inconclusive: 21.1%
CC(Sc1nnnn1-c1ccc(O)cc1)C(=O)NNC(=O)c1ccc(F)cc1 (stereo unspecified),"inconclusive: 16.4 µM [activator, single point]",–
COC(=O)c1c(NC(C)=O)sc2c1CCCC2,–,inconclusive: 15.5%
CCOC(=O)c1cc(-c2nnc(SCC(=O)Nc3ccc(F)cc3)o2)c(C)nc1C,–,inconclusive: 8.7%
Clc1cccc(Nc2nc(-c3cccnc3)cs2)c1,–,inconclusive: -18.5%
COc1ccc(C)cc1-n1nnnc1SCC(=O)NC1CCS(=O)(=O)C1 (stereo unspecified),–,inconclusive: 4.76%

SMILES,Potency,"lipid storage change, negative = inhibition"
O=C(N/C(=C/c1cccs1)C(=O)N1CCCC1)c1ccccc1,"inconclusive: 29.1 µM [falling, single point]",–
C#CCNC(=O)C1=C[C@@H](c2cn(C(C)=O)c3ccccc23)C[C@@H](OCCCCO)O1,"inconclusive: 32.6 µM [falling, single point]",–
COc1ccc(S(=O)(=O)N2CCCCCC2)cc1NS(=O)(=O)c1cc(C(=O)O)cc(C)c1C,"inconclusive: 0.517 µM [falling, partial curve, poor fit]",–
N#Cc1c2n(c3c(=S)nc[nH]c13)CCCCC2,"inconclusive: 2.06 µM [falling, single point]",–
Cc1ccccc1CS(=O)(=O)Cc1ccc(C(=O)NCC2CCCO2)o1 (stereo unspecified),–,inconclusive: 27.2%
Cc1cccc(C)c1NC1=NC(=S)N(c2ccccc2)C12CCOC(C)(C)C2 (stereo unspecified),"inconclusive: 2.06 µM [falling, full curve]",–
CCOc1ccc(NS(=O)(=O)c2c(C)nc3sc(CC)nn3c2=O)cc1,–,inconclusive: -14.8%
O=C(NCc1cccnc1)/C(=C/c1ccccc1)NC(=O)c1ccccc1,–,inconclusive: -1.07%
CC(NC(=O)C1CCCN1C(=O)OCc1ccccc1)c1ccccc1 (stereo unspecified),–,inconclusive: -22.5%
COc1ccccc1/C=C/c1ccc2cccc(O)c2n1,–,inconclusive: 9.61%
COC(=O)c1cscc1NC(C)=O,–,inconclusive: 6.22%
Cc1cccc(-c2ccc3ncnc(NCc4cc(C)cs4)c3c2)c1,–,inactive
O=c1oc2ccccc2c2[nH]ccc12,–,inconclusive: 131%
O=C(CCCn1c(=O)[nH]c2cc(Cl)ccc2c1=O)N1CCN(c2ccc([N+](=O)[O-])cc2)CC1,–,inconclusive: 11.4%
Cc1cccc(NC(=O)c2cccc(C(=O)Nc3cccc(C)c3C)n2)c1C,–,inconclusive: 27%
CCc1cccc(CC)c1NC(=O)CSc1nnc(C2CC2)n1N,–,inconclusive
CN(C)c1ccnc2sc3c(=O)n(-c4ccccc4)cnc3c12,–,inconclusive: 38.3%
O=C(Cn1c(=O)oc2cc(S(=O)(=O)N3CCCC3)ccc21)NCc1ccccn1,–,inconclusive: 1.83%
O=C(CCCN1CCC(NC(=O)c2ccccc2)CC1)c1ccc(Cl)cc1,–,inconclusive: -4.02%
CS(=O)(=O)N(CC(=O)NCCSc1ccccn1)c1cccc2ccccc12,"inconclusive: 6.51 µM [falling, single point]",–
O=[N+]([O-])c1ccccc1CNC1CCCc2ccccc21 (stereo unspecified),–,inconclusive: 2.89%
CCOC(=O)COc1ccc2c(c1)C(=O)CC1(CCCCC1)O2,"inconclusive: 0.461 µM [falling, full curve]",–
CCN(CC)S(=O)(=O)c1cccc(-c2n[nH]c(=S)n2/N=C/c2ccc(OC)cc2)c1,–,inconclusive: 16.4%
C/C(=N\O)C(C)(C)Nc1ccc(Br)cc1,–,inconclusive: 3.63%
Cc1ccc(C(=O)N2CCN(c3ccc(NC(=O)c4cccnc4)cc3)CC2)cc1,–,inactive
CCOc1ccc(NC(=O)N(CCN(C)C)C(C)c2ccncc2)cc1 (stereo unspecified),"inconclusive: 0.103 µM [activator, full curve, poor fit]",–

SMILES,Potency,"lipid storage change, negative = inhibition"
S=C(NCc1cccs1)Nc1ccc(Br)cc1Cl,–,inconclusive: -41.2% [cytotoxic] [at 0.369 µM]
OCC[C@H]1C[C@@H](O)[C@H](O)[C@@]2(CCCc3ccccc3O2)O1,–,inconclusive: 2.43%
COC(=O)C(CCSC)NC(=O)CNS(=O)(=O)c1ccc(F)cc1 (stereo unspecified),–,inconclusive: 24.2%
CC(=O)Nc1ccc(NC(=O)C(NS(=O)(=O)c2ccc3c(c2)OCCO3)C(C)C)cc1 (stereo unspecified),"inconclusive: 0.58 µM [falling, single point]",–
O=C(C1CCOCC1)N1CCCC(N2CCN(c3cccc(Cl)c3)CC2)C1 (stereo unspecified),"inconclusive: 29.1 µM [activator, single point]",–
CCN(CC)CCNC(=O)c1ccc(NC(=O)C2CC(=O)N(CCc3ccc(OC)c(OC)c3)C2)cc1 (stereo unspecified),"inconclusive: 0.0231 µM [falling, full curve, poor fit]",–
O=C(NCCCN1CCCCC1)c1ccc2c(c1)ncn2C1CCCC1,"inconclusive: 29.1 µM [activator, single point]",–
CC(=O)Nc1ccc(NCc2cccs2)cc1,–,inconclusive: 72%
CC(=O)c1ccc(N2CCN(CC(=O)NCc3ccccc3)CC2)cc1,–,inconclusive: 8.49%
CSC1=NCCN1S(=O)(=O)c1ccc(NC(C)=O)cc1,"inconclusive: 0.184 µM [activator, full curve, poor fit]",–
Cc1ccnc(NC(=O)C2CCN(S(=O)(=O)c3ccc(C)c(C)c3)CC2)c1,–,inconclusive: 40.2%
COCCn1cnnc1SCC(=O)Nc1cccc(S(=O)(=O)N2CCCCCC2)c1,–,inconclusive: 8.37%
O=C(CCS(=O)(=O)c1ccc(Br)cc1)NCCc1ccc(Cl)cc1,–,inconclusive: 2.44%
Cc1[nH][nH]c(=O)c1C(c1ccc(O)c([N+](=O)[O-])c1)c1c(C)[nH][nH]c1=O,"inconclusive: 20.6 µM [falling, single point]",–
Cc1cc(C)nc(Nc2ncc(O)n2-c2ccccc2)n1,–,inconclusive: 14.4%
CC1(C)CC(=O)C2=C(C1)OC(c1ccc(O)cc1)C(C#N)=C2N (stereo unspecified),"inconclusive: 0.0046 µM [falling, full curve, poor fit]",–
CCc1cccc(NC(=O)CCCn2nc(CC)n3c(cc4occc43)c2=O)c1,active: 20.6 µM,–
O=C(Nc1cccc(S(=O)(=O)C(F)F)c1)c1ccc(Cl)c(S(=O)(=O)N2CCOCC2)c1,–,inconclusive: -32.2%
O=C(Nc1ccccc1)c1ccc2c(c1)OCCCO2,–,inconclusive: -7.36%
COc1ccccc1CC(=O)NNS(=O)(=O)c1ccc([N+](=O)[O-])cc1,–,inconclusive: 9.46%
O=C(NN=C1CCCCCCCCCCC1)c1ccccc1F,–,inconclusive: 7.67%
CCC1(C(=O)OC)NC(c2ccco2)C2C(=O)N(c3ccccc3)C(=O)C21 (stereo unspecified),–,inactive
Cc1nnc(SCC(=O)Nc2ncc3c(n2)CCCC3=O)s1,–,inconclusive: 0.507%
CN(CCO)CC(O)Cn1cnc2c1c(=O)n(C)c(=O)n2C (stereo unspecified) (tested in a mixture with another compound),–,inconclusive: 1.49%
